# Data: patent publication US12558430B2, “Dual amylin and calcitonin receptor agonists and uses thereof” (Eli Lilly and Company, priority 2020, dated 2026)
# For at least one compound, name, drawing or mass did not settle the structure. Starred links: 1 amine or outer side, 2 acyl side, 3 side chain; linkers in the order of their positions; H or OH if unused. Non-standard residues stand in square brackets, D forms with d. Residues, ends and D or L forms follow the SMILES beside them. Groups on a side chain read outwards from the residue. *: point of attachment. C20 diacid = O=C(O)CCCCCCCCCCCCCCCCCCC(=O)*; γGlu = O=C(O)[C@H](CCC(=O)[*:2])N[*:1]; AEEA = NCCOCCOCC(=O)O; Aib = CC(C)(N)C(=O)O
# Experiments:
# Type in all cases: in vivo, rat
# DIO male Long Evans rats [1] = assay: DIO rats: Compound II in combination with other incretin compounds; details: 1 nmol/kg SC every three days, mean ± SEM
# Method: This study is conducted to investigate the effect of Compound II for diabetes and/or obesity conditions in DIO rats when administered in combination with other incretin compounds, including a GLP-1 agonist (Compound III), oxyntomodulin analog (Compound IV), and a triagonist of glucagon, GLP-1, and GIP (Compound V). Diet-induced obese (DIO) male Long Evans (Envigo) rats, maintained on a calorie rich diet since arrival at Lilly (TD95217; Teklad, Madison, Wis.), are used in the following studies. Animals are individually housed in a temperature-controlled (24° C.) facility with 12-hour light/dark cycle (lights on 2200) and free access to food (TD95217) and water.
# The rats are randomized according to their body weight, so that each experimental group of animals would have similar body weight. The body weights range from 529 to 823 grams.
# Each group contains five rats. […] Body weight and food intake are measured daily throughout the study. Absolute changes in body weight are calculated by subtracting the body weight of the same animal prior to the first injection of molecule.
# At the end of the study, blood is collected to measure blood glucose and plasma insulin. Blood glucose is measured by AccuChek glucometers (Roche, Indianapolis, Ind.). Insulin is measured by ELISA (MSD, Rockville, Md.). […]
# DIO male Long Evans rats [2] = assay: Efficacy of Compound II in diet induced obese (DIO) rats, 15 days; details: for Body Weight Change / Cumulative Food Intake / Fat Mass Change: Day 15; for Body Weight Change / Cumulative Food Intake / Fat Mass Change / Glucose AUC (60 min) during OGTT / Fasting Glucose [FG] / Fasting Insulin [FI] / HOMA-IR [(FG × FI)/22.5]: mean ± SEM; for Fasting Glucose [FG] / Fasting Insulin [FI] / HOMA-IR [(FG × FI)/22.5]: end of study
# Sprague Dawley (SD) rats = assay: Acute food intake and body weight, 96-hour study in normal rats; details: 0.1 nmol/kg SC
structure (smiles),measurement,setting,value
CC(=O)N[C@@H](C)C(=O)N[C@@H](CO)C(=O)N[C@@H](Cc1c[nH]cn1)C(=O)N[C@@H](CC(C)C)C(=O)N[C@@H](CO)C(=O)N[C@H](C(=O)N[C@@H](C)C(=O)N[C@H](C(=O)N[C@@H](CC(C)C)C(=O)NCC(=O)N[C@@H](CCCCNC(=O)COCCOCCNC(=O)COCCOCCNC(=O)CC[C@H](NC(=O)CCCCCCCCCCCCCCCCCCC(=O)O)C(=O)O)C(=O)N[C@@H](CC(C)C)C(=O)N[C@@H](CO)C(=O)NC(C)(C)C(=O)N[C@@H](CCC(=O)O)C(=O)N[C@@H](CC(C)C)C(=O)N[C@@H](Cc1c[nH]cn1)C(=O)N[C@@H](CCCCN)C(=O)N[C@@H](CC(C)C)C(=O)N[C@@H](CCC(=O)O)C(=O)N[C@@H](CC(=O)O)C(=O)N[C@@H](Cc1ccc(O)cc1)C(=O)N1CCC[C@H]1C(=O)N[C@@H](CCCNC(=N)N)C(=O)N[C@H](C(=O)N[C@@H](CC(=O)O)C(=O)N[C@H](C(=O)NCC(=O)N[C@@H](C)C(=O)N[C@@H](CCC(=O)O)C(=O)N[C@@H](CO)C(=O)N1CCC[C@H]1C(N)=O)C(C)C)[C@@H](C)O)C(C)C)[C@@H](C)O [Compound II] (Ac-ASHLSTAVLGK([AEEA-AEEA-γGlu-C20 diacid])LS[Aib]ELHKLEDYPRTDVGAESP-NH2),Cumulative Food Intake,DIO male Long Evans rats [1]; 14-day treatment period,137.38 ± 4.28 g
same,Body Weight Change,DIO male Long Evans rats [1]; Day −1 to Day 14,-53.84 ± 2.85 g
same,Body Weight Change,DIO male Long Evans rats [2]; 0.1 nmol/kg SC every 3 days,4.32 ± 1.66 g
same,Cumulative Food Intake,DIO male Long Evans rats [2]; 0.1 nmol/kg SC every 3 days,235.58 ± 6.34 g
same,Fat Mass Change,DIO male Long Evans rats [2]; 0.1 nmol/kg SC every 3 days,4.93 ± 2.96 g
same,Glucose AUC (60 min) during OGTT,DIO male Long Evans rats [2]; 0.1 nmol/kg SC every 3 days,14638.50 ± 607.28 mg/dL
same,Fasting Glucose [FG],DIO male Long Evans rats [2]; 0.1 nmol/kg SC every 3 days,6.94 ± 0.22 mmol/L
same,Fasting Insulin [FI],DIO male Long Evans rats [2]; 0.1 nmol/kg SC every 3 days,41.68 ± 5.13 μU/ml
same,HOMA-IR [(FG × FI)/22.5],DIO male Long Evans rats [2]; 0.1 nmol/kg SC every 3 days,12.98 ± 1.69
same,Body Weight Change,DIO male Long Evans rats [2]; 0.3 nmol/kg SC every 3 days,-18.74 ± 3.31 g
same,Cumulative Food Intake,DIO male Long Evans rats [2]; 0.3 nmol/kg SC every 3 days,197.14 ± 14.35 g
same,Fat Mass Change,DIO male Long Evans rats [2]; 0.3 nmol/kg SC every 3 days,-10.62 ± 2.80 g
same,Glucose AUC (60 min) during OGTT,DIO male Long Evans rats [2]; 0.3 nmol/kg SC every 3 days,11367.75 ± 486.94 mg/dL
same,Fasting Glucose [FG],DIO male Long Evans rats [2]; 0.3 nmol/kg SC every 3 days,6.50 ± 0.13 mmol/L
same,Fasting Insulin [FI],DIO male Long Evans rats [2]; 0.3 nmol/kg SC every 3 days,35.06 ± 4.89 μU/ml
same,HOMA-IR [(FG × FI)/22.5],DIO male Long Evans rats [2]; 0.3 nmol/kg SC every 3 days,10.22 ± 1.56
same,Body Weight Change,DIO male Long Evans rats [2]; 1 nmol/kg SC every 3 days,-38.30 ± 5.67 g
same,Cumulative Food Intake,DIO male Long Evans rats [2]; 1 nmol/kg SC every 3 days,163.56 ± 13.40 g
same,Fat Mass Change,DIO male Long Evans rats [2]; 1 nmol/kg SC every 3 days,-22.42 ± 4.74 g
same,Glucose AUC (60 min) during OGTT,DIO male Long Evans rats [2]; 1 nmol/kg SC every 3 days,11367.75 ± 703.77 mg/dL
same,Fasting Glucose [FG],DIO male Long Evans rats [2]; 1 nmol/kg SC every 3 days,6.94 ± 0.43 mmol/L
same,Fasting Insulin [FI],DIO male Long Evans rats [2]; 1 nmol/kg SC every 3 days,18.38 ± 3.53 μU/ml
same,HOMA-IR [(FG × FI)/22.5],DIO male Long Evans rats [2]; 1 nmol/kg SC every 3 days,5.82 ± 1.31
same,Body Weight Change,DIO male Long Evans rats [2]; 3 nmol/kg SC every 3 days,-59.84 ± 5.32 g
same,Cumulative Food Intake,DIO male Long Evans rats [2]; 3 nmol/kg SC every 3 days,125.70 ± 12.36 g
same,Fat Mass Change,DIO male Long Evans rats [2]; 3 nmol/kg SC every 3 days,-38.09 ± 3.64 g
same,Glucose AUC (60 min) during OGTT,DIO male Long Evans rats [2]; 3 nmol/kg SC every 3 days,11189.25 ± 657.87 mg/dL
same,Fasting Glucose [FG],DIO male Long Evans rats [2]; 3 nmol/kg SC every 3 days,6.78 ± 0.28 mmol/L
same,Fasting Insulin [FI],DIO male Long Evans rats [2]; 3 nmol/kg SC every 3 days,23.84 ± 2.15 μU/ml
same,HOMA-IR [(FG × FI)/22.5],DIO male Long Evans rats [2]; 3 nmol/kg SC every 3 days,7.26 ± 0.93
same,Body Weight Change,DIO male Long Evans rats [2]; 10 nmol/kg SC every 3 days,-73.06 ± 4.27 g
same,Cumulative Food Intake,DIO male Long Evans rats [2]; 10 nmol/kg SC every 3 days,110.12 ± 11.24 g
same,Fat Mass Change,DIO male Long Evans rats [2]; 10 nmol/kg SC every 3 days,-43.26 ± 0.81 g
same,Glucose AUC (60 min) during OGTT,DIO male Long Evans rats [2]; 10 nmol/kg SC every 3 days,10959.75 ± 507.17 mg/dL
same,Fasting Glucose [FG],DIO male Long Evans rats [2]; 10 nmol/kg SC every 3 days,7.04 ± 0.20 mmol/L
same,Fasting Insulin [FI],DIO male Long Evans rats [2]; 10 nmol/kg SC every 3 days,28.08 ± 2.51 μU/ml
same,HOMA-IR [(FG × FI)/22.5],DIO male Long Evans rats [2]; 10 nmol/kg SC every 3 days,8.72 ± 0.62
same,Body Weight Change,DIO male Long Evans rats [2]; 30 nmol/kg SC every 3 days,-77.24 ± 3.41 g
same,Cumulative Food Intake,DIO male Long Evans rats [2]; 30 nmol/kg SC every 3 days,103.14 ± 13.53 g
same,Fat Mass Change,DIO male Long Evans rats [2]; 30 nmol/kg SC every 3 days,-41.94 ± 6.05 g
same,Glucose AUC (60 min) during OGTT,DIO male Long Evans rats [2]; 30 nmol/kg SC every 3 days,9936.00 ± 752.37 mg/dL
same,Fasting Glucose [FG],DIO male Long Evans rats [2]; 30 nmol/kg SC every 3 days,6.02 ± 0.38 mmol/L
same,Fasting Insulin [FI],DIO male Long Evans rats [2]; 30 nmol/kg SC every 3 days,15.16 ± 3.63 μU/ml
same,HOMA-IR [(FG × FI)/22.5],DIO male Long Evans rats [2]; 30 nmol/kg SC every 3 days,4.02 ± 0.91
same,Body Weight Change,DIO male Long Evans rats [2]; 100 nmol/kg SC every 3 days,-85.84 ± 3.78 g
same,Cumulative Food Intake,DIO male Long Evans rats [2]; 100 nmol/kg SC every 3 days,89.36 ± 10.45 g
same,Fat Mass Change,DIO male Long Evans rats [2]; 100 nmol/kg SC every 3 days,-40.77 ± 3.46 g
same,Glucose AUC (60 min) during OGTT,DIO male Long Evans rats [2]; 100 nmol/kg SC every 3 days,10014.00 ± 538.58 mg/dL
same,Fasting Glucose [FG],DIO male Long Evans rats [2]; 100 nmol/kg SC every 3 days,5.86 ± 0.32 mmol/L
same,Fasting Insulin [FI],DIO male Long Evans rats [2]; 100 nmol/kg SC every 3 days,11.92 ± 2.46 μU/ml
same,HOMA-IR [(FG × FI)/22.5],DIO male Long Evans rats [2]; 100 nmol/kg SC every 3 days,3.20 ± 0.76
same,effect on body weight and food intake,DIO male Long Evans rats [2]; male DIO rats,reduces body weight and food intake in male DIO rats in a dose-dependent manner
same,effect on serum glucose and insulin,DIO male Long Evans rats [2]; male DIO rats,reduced serum glucose and reduced insulin are observed
same,% Change in Body Weight,Sprague Dawley (SD) rats; 0 h,0.00%
same,Daily Food Intake,Sprague Dawley (SD) rats; 0 h,0.00 grams
same,% Change in Body Weight,Sprague Dawley (SD) rats; 24 h,−0.89%
same,Daily Food Intake,Sprague Dawley (SD) rats; 24 h,16.12 grams
